In this experiment the target is protein kinase C delta (PKC-δ) (human (endogenous in SHSY5Y)) (UniProt Q05655). Briefly: co-IP; whole cell lysates of SHSY5Y cells (control, OGD/R, OGD/R with 2.5 μM C+P; 6 and 24 hours of reoxygenation); anti-PKC-δ or control IgG overnight at 4°C, protein G magnetic beads; Western blot for PKC-δ and p47phox. (Immunoblotting shows a protein as a band on a membrane.)

Chains of the proteins cited; added tags and fusions are not shown. Lines headed by an entry give the natural chain unless they say otherwise; changes in a name come on top.
UniProt Q05655: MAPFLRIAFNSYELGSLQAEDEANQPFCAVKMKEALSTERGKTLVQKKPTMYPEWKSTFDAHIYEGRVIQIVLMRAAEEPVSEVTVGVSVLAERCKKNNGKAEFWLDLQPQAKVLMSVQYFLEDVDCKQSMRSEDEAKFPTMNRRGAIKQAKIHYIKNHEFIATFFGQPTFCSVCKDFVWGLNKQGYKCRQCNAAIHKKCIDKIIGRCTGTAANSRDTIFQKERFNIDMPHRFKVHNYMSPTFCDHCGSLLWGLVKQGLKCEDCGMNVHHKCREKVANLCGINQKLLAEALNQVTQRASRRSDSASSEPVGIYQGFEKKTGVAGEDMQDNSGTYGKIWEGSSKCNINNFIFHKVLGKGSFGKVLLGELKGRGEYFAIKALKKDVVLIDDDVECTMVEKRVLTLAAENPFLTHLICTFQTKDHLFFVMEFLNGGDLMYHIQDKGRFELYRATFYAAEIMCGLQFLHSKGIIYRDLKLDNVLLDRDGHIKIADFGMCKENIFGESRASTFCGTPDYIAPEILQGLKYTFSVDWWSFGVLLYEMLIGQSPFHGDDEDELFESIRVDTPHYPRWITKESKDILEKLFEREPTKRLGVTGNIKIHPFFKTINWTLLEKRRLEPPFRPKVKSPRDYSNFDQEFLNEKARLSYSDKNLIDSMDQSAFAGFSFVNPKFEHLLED
UniProt P14598: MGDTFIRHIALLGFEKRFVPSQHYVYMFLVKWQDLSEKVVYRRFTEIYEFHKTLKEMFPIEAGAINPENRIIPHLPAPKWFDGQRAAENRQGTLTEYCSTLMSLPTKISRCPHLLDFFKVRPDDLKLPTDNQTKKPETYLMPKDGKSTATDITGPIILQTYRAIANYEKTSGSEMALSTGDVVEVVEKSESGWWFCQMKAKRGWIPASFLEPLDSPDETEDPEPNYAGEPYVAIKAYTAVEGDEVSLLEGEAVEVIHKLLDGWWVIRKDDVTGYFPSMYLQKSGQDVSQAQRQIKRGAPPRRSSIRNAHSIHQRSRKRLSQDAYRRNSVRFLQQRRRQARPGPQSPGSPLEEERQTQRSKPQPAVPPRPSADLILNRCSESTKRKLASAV

No constants are given. Whether binding was seen depends on the method and setting. In cells and extracts the contact can be indirect. Some entries that bind do so weakly or less than the wild type.

On to “p47phox (NADPH oxidase subunit) (from UniProt P14598 1-390)”, for which the binding entry was “binds”.

Source of the values: paper PMC9307415.
